# PubChem BioAssay AID652243 – Drosophila RNAi Screening Center, 2013
# Test: 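Fly genes required for human androgen receptor driven transcription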 (primary screen)
# Cell system: Drosophila S2R+ cells
# Reagent: long dsRNA against Drosophila genes
# Time to read-out: 72 h (48 h, then 24 h hormone)
# Treatment: synthetic androgen R1881 at 10 nM for 24 h
# Detection: 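Per-well raw luminescence of the androgen-driven firefly reporter and of the Renilla control, two replicates each, without normalisation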
# Reading the numbers: firefly reporter light: higher = more light from androgen-responsive reporter; Renilla control light: higher = more constitutive control signal (cell number, transfection)
# Call rule: 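Across duplicate plates, a knock-down whose log firefly/Renilla ratio shifted a set fold down or up from the GFP/LacZ control mean was a hit; the downward cut appears as both 1.5 and 3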
# Calls: active = hit: reporter lowered or raised; inactive = no hit
# The screen tested about 24,000 reagents; this is an unselected part of those with a known target gene and a result. In the full data, 246 (1%) were called active. 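Plates not normalised; calls are printed but the firefly/Renilla ratio behind them is not deposited; fold cut for lowering reported inconsistently.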 Raw values are not corrected between plates. Reagent sequences are not shown. Not given: the amount of reagent.
"firefly reporter light, replicate 1","firefly reporter light, replicate 2","Renilla control light, replicate 1","Renilla control light, replicate 2",outcome,gene,DRSC id
1.43e6,1.53e6,2.38e6,2.36e6,inactive,Ing5,DRSC03188
7.29e5,7.00e5,7.57e5,8.24e5,inactive,Ing5,DRSC25216
2.53e5,3.35e5,2.75e6,2.62e6,inactive,Vsp37A,DRSC18794
7.96e5,7.34e5,2.13e6,1.96e6,inactive,CG33679,DRSC38913
1.33e5,1.58e5,7.14e5,6.54e5,inactive,Spindly,DRSC00430
25713,39615,5.57e5,4.32e5,inactive,SsRbeta,DRSC11290
4.45e5,1.86e5,1.22e6,5.25e5,inactive,SkpE,DRSC19431
1.88e5,1.37e5,8.74e5,1.14e6,inactive,BG642163,DRSC00342
1.35e5,1.23e5,1.23e6,9.32e5,inactive,BG642163,DRSC00343
3.68e5,3.12e5,3.47e6,3.04e6,inactive,CG18273,DRSC18150
6.26e5,6.50e5,1.77e6,1.44e6,inactive,CG18273,DRSC18505
5.34e5,4.34e5,1.95e6,1.90e6,inactive,CG31418,DRSC21780
2.86e5,2.62e5,6.61e5,6.41e5,inactive,CG31418,DRSC26160
1.68e5,77152,1.43e5,1.17e5,inactive,oys,DRSC05203
1.02e6,9.73e5,1.31e6,1.11e6,inactive,oys,DRSC06751
4.27e5,4.71e5,6.26e5,4.97e5,inactive,oys,DRSC26939
5.02e5,5.75e5,7.53e5,8.90e5,inactive,Uxs,DRSC10941
2.42e5,3.66e5,3.73e5,6.63e5,inactive,Uxs,DRSC28512
1.14e5,1.30e5,1.75e6,1.94e6,inactive,ranshi,DRSC16564
3.84e5,5.59e5,6.56e5,6.56e5,inactive,ranshi,DRSC29605
2.89e5,2.62e5,2.72e6,2.02e6,inactive,gudu,DRSC02820
1.47e5,1.27e5,9.07e5,6.15e5,inactive,CG18132,DRSC00518
1.07e5,77155,4.44e5,3.54e5,inactive,wdn,DRSC17095
5.46e5,5.72e5,8.31e5,7.71e5,inactive,wdn,DRSC29088
8.64e5,1.08e6,1.50e6,1.43e6,inactive,CG1275,DRSC08294
1.98e5,1.81e5,2.27e6,2.61e6,inactive,Ugt35D1,DRSC15107
1.03e5,1.25e5,1.45e6,1.97e6,inactive,Sld5,DRSC14892
2.32e5,2.86e5,6.28e5,6.02e5,inactive,CG32450,DRSC11546
5.99e5,5.77e5,6.31e5,4.77e5,inactive,OstDelta,DRSC06980
2.24e5,2.23e5,5.64e5,4.29e5,inactive,OstDelta,DRSC27205
1.44e6,9.61e5,2.29e6,1.76e6,inactive,Galphai,DRSC11168
2.93e5,4.52e5,3.85e5,8.82e5,inactive,Galphai,DRSC28521
2.58e5,1.51e5,3.11e6,1.59e6,inactive,fz,DRSC11348
8.18e5,6.95e5,1.96e6,1.29e6,inactive,fz,DRSC39155
85520,1.25e5,1.20e6,1.10e6,inactive,Ntan1,DRSC07546
2.00e6,2.04e6,2.47e6,2.46e6,inactive,Bap55,DRSC07000
7.08e5,6.04e5,9.13e5,7.99e5,inactive,THADA,DRSC23476
6.40e5,6.33e5,1.49e6,1.50e6,inactive,THADA,DRSC39006
3.50e5,3.30e5,3.08e6,2.90e6,inactive,CG14218,DRSC19575
7.53e5,7.75e5,1.34e6,1.37e6,inactive,CG14218,DRSC25424
1.60e5,1.01e5,5.40e5,5.09e5,inactive,Paip1,DRSC07302
7.03e5,1.11e6,8.60e5,1.12e6,inactive,Paip1,DRSC23561
2.15e5,2.04e5,6.03e5,5.13e5,inactive,CG30001,DRSC05191
8.37e5,7.58e5,2.60e6,3.15e6,inactive,bisc,DRSC04083
2.59e5,2.36e5,4.55e5,9.02e5,inactive,bisc,DRSC28459
10827,13271,67334,85147,inactive,E5,DRSC13000
8.15e5,8.15e5,1.54e6,1.66e6,inactive,E5,DRSC23157
3.32e5,5.34e5,8.89e5,1.96e6,inactive,E5,DRSC28326
3.38e5,4.57e5,5.76e5,9.11e5,inactive,trv,DRSC13846
1.96e5,1.54e5,3.36e6,2.92e6,inactive,trv,DRSC14560
5.21e5,5.87e5,3.59e6,4.09e6,inactive,trv,DRSC14561
9.82e5,1.21e6,1.06e6,9.18e5,inactive,trv,DRSC25527
3.94e5,2.91e5,8.00e5,6.21e5,inactive,trv,DRSC25789
64430,59331,1.27e6,1.27e6,inactive,Ir51a,DRSC06256
5.97e5,5.20e5,3.87e6,3.80e6,inactive,Mdr65,DRSC11220
31121,30165,1.00e6,1.15e6,inactive,Octbeta3R,DRSC15351
59642,43073,7.46e5,1.06e6,inactive,Octbeta3R,DRSC16191
8.27e5,8.57e5,1.40e6,1.54e6,inactive,Octbeta3R,DRSC21853
1.04e5,92199,4.41e5,7.84e5,inactive,Octbeta3R,DRSC21902
6.21e5,7.09e5,2.59e6,2.48e6,inactive,Octbeta3R,DRSC22350
1.10e6,8.45e5,7.67e5,7.97e5,inactive,Octbeta3R,DRSC24019
8.68e5,9.31e5,6.36e5,7.28e5,inactive,Octbeta3R,DRSC25327
3.83e5,3.01e5,6.39e5,4.93e5,inactive,Octbeta3R,DRSC26889

Laid out differently: entries from further up.
CG1275 [DRSC08294]
- firefly reporter light, replicate 1: 8.64e5
- firefly reporter light, replicate 2: 1.08e6
- Renilla control light, replicate 1: 1.50e6
- Renilla control light, replicate 2: 1.43e6
- outcome: inactive

Ugt35D1 [DRSC15107]
- firefly reporter light, replicate 1: 1.98e5
- firefly reporter light, replicate 2: 1.81e5
- Renilla control light, replicate 1: 2.27e6
- Renilla control light, replicate 2: 2.61e6
- outcome: inactive

Sld5 [DRSC14892]
- firefly reporter light, replicate 1: 1.03e5
- firefly reporter light, replicate 2: 1.25e5
- Renilla control light, replicate 1: 1.45e6
- Renilla control light, replicate 2: 1.97e6
- outcome: inactive
